In publication PMC10226041, “Discovery of Ruthenium(II) Metallocompound and Olaparib Synergy for Cancer Combination Therapy” (Journal of Medicinal Chemistry, 2023):

Tested on: calf thymus DNA
Assay: DNA binding titrations (luminescence or UV–Vis) with calf thymus DNA
Settings: luminescence titration, McGhee von Hippel fit

| SMILES | n, binding site size in base pairs [bp] |
| --- | --- |
| Cc1cc(C)c2nc3c4ccc[n+]5c4c4c(ccc[n+]4[Ru-4]546([n+]5ccccc5-c5cccc[n+]54)[n+]4ccccc4-c4cccc[n+]46)c3nc2c1 [Compound 5, [Ru(bpy)2(dmdppz)]^2+] | 1.6 |
| Cc1cc(C)c2nc3c4ccc[n+]5c4c4c(ccc[n+]4[Ru-4]546([n+]5cc(C)ccc5-c5ccc(C)c[n+]54)[n+]4cc(C)ccc4-c4ccc(C)c[n+]46)c3nc2c1 [Compound 6, [Ru(5,5′dmb)2(dmdppz)]^2+] | 1.4 |
| Cc1cc[n+]2c(c1)-c1cc(C)cc[n+]1[Ru-4]213([n+]2ccc(C)cc2-c2cc(C)cc[n+]21)[n+]1cccc2c4nc5cc(C)cc(C)c5nc4c4ccc[n+]3c4c21 [Compound 7, [Ru(4,4′dmb)2(dmdppz)]^2+] | 0.7 |
